Record: PubChem BioAssay AID1259308 (NCATS, 2017)

Aim: 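Knock-downs that increase output of a recombinant reporter protein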 (primary screen)
Cell system: human HEK293 embryonic kidney cells stably expressing firefly luciferase (HEK-CMV-Luc2-Hygro)
Reagents: single siRNA against human genes, 0.8 pmol siRNA per well
Duration: 72 h
Read-out: 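Reporter luminescence and viable-cell signal on separate replicate plates, given as percent of non-targeting control and median/MAD z-scores, plus per-cell luciferase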
Direction: total luciferase, z-score: higher = more reporter protein produced
Active means: 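An siRNA counts as active if its total luciferase robust z-score exceeds 3; genes with two or more such siRNAs out of three were retested with fresh siRNAs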
Calls: active = raised luciferase; inactive = no rise
The whole screen tested about 59,000 reagents; shown is a random part of them. In the full data, about 1,510 (2.6%) were called active. 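Calls use total luciferase alone and ignore viability, so some active siRNAs may act by altering cell number.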 Unmarked entries are inactive. Reagents against one gene are numbered here. Not all columns of the deposit are shown.

no.	Target gene	siRNA no.	total luciferase, z-score
1	IL17RD (interleukin 17 receptor D)	1	-0.922
2	IL17RD (interleukin 17 receptor D)	2	-0.733
3	IL17RD (interleukin 17 receptor D)	3	0.164
4	H2BC3 (H2B clustered histone 3)	1	-0.638
5	H2BC3 (H2B clustered histone 3)	2	-0.859
6	H2BC3 (H2B clustered histone 3)	3	-0.876
7	CEPT1 (choline/ethanolamine phosphotransferase 1)	1	-0.565
8	CEPT1 (choline/ethanolamine phosphotransferase 1)	2	0.838
9	CEPT1 (choline/ethanolamine phosphotransferase 1)	3	-0.889
10	CPN2 (carboxypeptidase N subunit 2)	1	-0.374
11	CPN2 (carboxypeptidase N subunit 2)	2	0.11
12	CPN2 (carboxypeptidase N subunit 2)	3	-0.86
13	HBQ1 (hemoglobin subunit theta 1)	1	0.00691
14	HBQ1 (hemoglobin subunit theta 1)	2	0.217
15	HBQ1 (hemoglobin subunit theta 1)	3	-0.632
16	RPL13 (ribosomal protein L13)	1	-3.14
17	RPL13 (ribosomal protein L13)	2	-2.13
18	RPL13 (ribosomal protein L13)	3	-0.907
19	COQ2 (coenzyme Q2, polyprenyltransferase)	1	0.101
20	COQ2 (coenzyme Q2, polyprenyltransferase)	2	-0.397
21	COQ2 (coenzyme Q2, polyprenyltransferase)	3	1.39
22	GDF3 (growth differentiation factor 3)	1	2.18
23	GDF3 (growth differentiation factor 3)	2	0.287
24	GDF3 (growth differentiation factor 3)	3	0.237

Not a retest: entries from further up.
no.	Target gene	siRNA no.	total luciferase, z-score
6	H2BC3 (H2B clustered histone 3)	3	-0.876
7	CEPT1 (choline/ethanolamine phosphotransferase 1)	1	-0.565
8	CEPT1 (choline/ethanolamine phosphotransferase 1)	2	0.838
9	CEPT1 (choline/ethanolamine phosphotransferase 1)	3	-0.889
10	CPN2 (carboxypeptidase N subunit 2)	1	-0.374
11	CPN2 (carboxypeptidase N subunit 2)	2	0.11

The results go on:
no.	Target gene	siRNA no.	total luciferase, z-score
25	SHMT1 (serine hydroxymethyltransferase 1)	1	-0.565
26	SHMT1 (serine hydroxymethyltransferase 1)	2	1.36
27	SHMT1 (serine hydroxymethyltransferase 1)	3	-0.382
28	TLN1 (talin 1)	1	0.47
29	TLN1 (talin 1)	2	3.15 (active)
30	TLN1 (talin 1)	3	2.57
31	MNX1-AS1 (MNX1 antisense RNA 1)	1	1.18
32	MNX1-AS1 (MNX1 antisense RNA 1)	2	-0.0817
33	MNX1-AS1 (MNX1 antisense RNA 1)	3	1.26
34	SLC39A7	1	2.54
35	SLC39A7	2	1.35
36	SLC39A7	3	-1.92
37	AGAP11 (ArfGAP with GTPase domain, ankyrin repeat and PH domain 11)	1	-0.245
38	AGAP11 (ArfGAP with GTPase domain, ankyrin repeat and PH domain 11)	2	0.471
39	AGAP11 (ArfGAP with GTPase domain, ankyrin repeat and PH domain 11)	3	0.867
